No constants are given. Whether binding was seen depends on the method and setting. Some entries that bind do so weakly or less than the wild type. Where a sequence is shown, tags or fusion partners need not be part of it.

The target in assay [1] is T1, His6-tagged mouse SDS3 (residues 43-234) (mouse) (UniProt Q8BR65).
T1 sequence: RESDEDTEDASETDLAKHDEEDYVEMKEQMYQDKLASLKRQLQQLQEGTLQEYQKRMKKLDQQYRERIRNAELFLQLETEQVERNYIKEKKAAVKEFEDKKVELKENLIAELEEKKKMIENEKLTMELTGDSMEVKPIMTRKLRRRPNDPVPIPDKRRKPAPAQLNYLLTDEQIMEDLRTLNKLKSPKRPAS
Description: SEC; Ni-NTA purified proteins on a Superdex 75 GL column in 25 mM MOPS pH 7.5, 150 mM NaCl, 1 mM TCEP; co-elution; both purified. In general terms: Size exclusion chromatography separates by hydrodynamic size, large species first.

The target of assay [2] is T2, His6-tagged human ING2 SAID domain (residues 18-131) (human) (UniProt Q9H160).
T2 sequence: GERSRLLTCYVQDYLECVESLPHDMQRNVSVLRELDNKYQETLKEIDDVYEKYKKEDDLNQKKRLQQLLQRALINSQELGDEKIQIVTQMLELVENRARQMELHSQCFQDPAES
The assay is described as above.

B1: maltose-binding protein (MBP)-tagged human BRMS1 (residues 51-179) (domain or fragment, UniProt Q9HCU9 51-179)
chain: EDYERRRSECVSEMLDLEKQFSELKEKLFRERLSQLRLRLEEVGAERAPEYTEPLGGLQRSLKIRIQVAGIYKGFCLDVIRNKYECELQGAKQHLESEKLLLYDTLQGELQERIQRLEEDRQSLDLSSE
For the molecule B1, the binding entry in assay [1] is on record as “binds”.

B2: MBP-tagged human SAP130 (residues 924-1048) (domain or fragment, UniProt Q9H0E3 924-1048)
chain: EEKKAMLQEIANQKGVSCRAQGWKVHLCAAQLLQLTNLEHDVYERLTNLQEGIIPKKKAATDDDLHRINELIQGNMQRCKLVMDQISEARDSMLKVLDHKDRVLKLLNKNGTVKKVSKLKRKEKV
Take B2: the binding entry in assay [2] is given as “binds”.

The values are drawn from publication PMC10224958, “Cryo-EM structure of the Saccharomyces cerevisiae Rpd3L histone deacetylase complex” (Nature Communications, 2023).
